For at least one compound, name, drawing or mass did not settle the structure.
Biological target: T1, human ZAC (zinc activated ion channel) (Homo sapiens, UniProt Q401N2)
T1 construct: expressed in transfected cells; host or cells: HEK (human embryonic kidney) cells, transient calcium phosphate transfection, vector pcDNA1.1/amp, GFP co-transfected on a separate plasmid (pCDM8)
T1 sequence (Q401N2 26-412): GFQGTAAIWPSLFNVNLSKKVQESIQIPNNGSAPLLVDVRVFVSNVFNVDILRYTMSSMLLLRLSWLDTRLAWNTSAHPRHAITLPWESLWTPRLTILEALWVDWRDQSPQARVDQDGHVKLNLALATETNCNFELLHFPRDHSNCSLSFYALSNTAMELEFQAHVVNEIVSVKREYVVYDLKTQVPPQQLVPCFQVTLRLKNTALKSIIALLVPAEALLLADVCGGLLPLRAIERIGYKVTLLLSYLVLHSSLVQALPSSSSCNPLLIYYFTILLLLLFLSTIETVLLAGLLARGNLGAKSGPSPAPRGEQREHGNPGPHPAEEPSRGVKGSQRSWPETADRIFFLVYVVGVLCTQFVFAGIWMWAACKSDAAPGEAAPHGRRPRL
Experiment: Whole cell patch-clamp recording of currents from HEK cells transfected with human ZAC
Format: cell-based
Settings: HEK cells expressing hZAC, clamped at −60 mV, 22-24° C.
Experimental: To generate HEK expressing hZAC, HEK cells were grown in Dulbecco's modified Eagle's medium, supplemented with 10% calf serum, 100 IU/ml penicillin, and 100 μg/ml streptomycin. Following confluence, the cells were seeded into 35 mm diameter dishes and transfected with cDNAs encoding the human ZAC subunit (in pcDNA1.1/amp) and green fluorescent protein (GFP) (in pCDM8). Cells were transfected using calcium phosphate precipitation as known in the art. Cells were used 24-44 h after transfection.
The whole cell patch-clamp technique was used to record currents from HEK cells. […]
Currents were amplied (Axopatch 200A, Axon Instruments), low pass-filtered at 1 kHz, and digitized (Digidata 1320, Axon Instruments, Foster City, Calif.) for acquisition onto the hard drive of a personal computer. Currents were averaged, superimposed, and measured using pCLAMP software (Axon Instruments). […]
Graphs of concentration-response relationships were fitted using a logistic function as known in the art. Current-voltage relationships were analyzed by averaging at least two currents recorded at each holding potential. […] All data are expressed as the arithmetic mean±S.E., and statistical comparisons were made using the Student's t test.

SMILES: CC(=O)OCC[N+](C)(C)C [acetylcholine]
- Activation of ZAC: did not activate
